According to the supplement of paper PMC4604168 (melanoma cell lines):
This is one part of the list. Many values rest on one well or one pass, so single values are uncertain.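 Imaging used 1,536-well plates; nuclei positive for cleaved PARP by antibody were divided by total DNA-stained nuclei to yield the apoptosis fraction. Doses for screening kept most cells viable, and cell lines differ markedly in resting and induced cleaved-PARP levels.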

What was measured:
Test in all cases: cleaved PARP positive nuclei fraction relative to DMSO control; melanoma cells; higher = more apoptosis
Conditions in all cases: library dose: low library concentration; 72 h
MZ2-MEL = test system: MZ2-MEL
MeWo = test system: MeWo
RPMI7951 = test system: RPMI7951
RVH-421 = test system: RVH-421
SkMel28 = test system: SkMel28
SkMel2 = test system: SkMel2
SkMel30 = test system: SkMel30
SkMel5 = test system: SkMel5
UACC257 = test system: UACC257
UACC62 = test system: UACC62

| Structure (SMILES) | cleaved PARP positive nuclei fraction (MZ2-MEL) [%] | cleaved PARP positive nuclei fraction (MeWo) [%] | cleaved PARP positive nuclei fraction (RPMI7951) [%] | cleaved PARP positive nuclei fraction (RVH-421) [%] | cleaved PARP positive nuclei fraction (SkMel28) [%] | cleaved PARP positive nuclei fraction (SkMel2) [%] | cleaved PARP positive nuclei fraction (SkMel30) [%] | cleaved PARP positive nuclei fraction (SkMel5) [%] | cleaved PARP positive nuclei fraction (UACC257) [%] | cleaved PARP positive nuclei fraction (UACC62) [%] |
| --- | --- | --- | --- | --- | --- | --- | --- | --- | --- | --- |
| N#CC[C@H](C1CCCC1)n1cc(-c2ncnc3[nH]ccc23)cn1 [ruxolitinib] + C/C(O)=C(\C#N)C(=O)Nc1cc(Br)ccc1Br [LFM-A13] (first compound 1 µM, partner dose 2 µM) | 268 | 22.2 | 286 | 34.4 | 139 | 190 | 30.6 | 136 | 177 | 28.4 |
| CC[C@]1(O)C[C@H]2CN(CCc3c([nH]c4ccccc34)[C@@](C(=O)OC)(c3cc4c(cc3OC)N(C=O)[C@H]3[C@@](O)(C(=O)OC)[C@H](OC(C)=O)[C@]5(CC)C=CCN6CC[C@]43[C@@H]65)C2)C1 [vincristine] + O=C(Oc1ccc([N+](=O)[O-])cc1)N1CCC(C(O)(c2ccc3c(c2)OCO3)c2ccc3c(c2)OCO3)CC1 [JZL184] (first compound 0.0001 µM, partner dose 1 µM) | 173 | 187 | 90.6 | 192 | 183 | 114 | 258 | 180 | 626 | 584 |
| Cc1cc(Nc2cc(N3CCN(C)CC3)nc(/C=C/c3ccccc3)n2)n[nH]1 + C/C(O)=C(\C#N)C(=O)Nc1cc(Br)ccc1Br [LFM-A13] (first compound 0.04 µM, partner dose 2 µM) | 99.4 | 21.3 | 129 | 188 | 76 | 106 | 34.7 | 239 | 101 | 150 |
| Cn1cc(C2=C(c3cn(C4CCN(Cc5ccccn5)CC4)c4ccccc34)C(=O)NC2=O)c2ccccc21 [Enzastaurin] + COc1cc(N2CCC(N3CCN(C)CC3)CC2)ccc1Nc1ncc(Cl)c(Nc2ccccc2S(=O)(=O)C(C)C)n1 [NVP-TAE684] (first compound 0.8 µM, partner dose 0.08 µM) | 21.9 | 85.5 | 39.5 | 97.1 | 73.2 | 114 | 85.3 | 93.7 | 265 | 45.6 |
| Nc1ncn([C@H]2C[C@H](O)[C@@H](CO)O2)c(=O)n1 [decitabine] + O=C(Oc1ccc([N+](=O)[O-])cc1)N1CCC(C(O)(c2ccc3c(c2)OCO3)c2ccc3c(c2)OCO3)CC1 [JZL184] (first compound 0.1 µM, partner dose 1 µM) | 87.3 | 86.6 | 90.3 | 134 | 24.7 | 70 | 629 | 87.7 | 241 | 110 |
| Nc1ccn([C@@H]2O[C@H](CO)[C@@H](O)C2(F)F)c(=O)n1 [gemcitabine] + C/C(O)=C(\C#N)C(=O)Nc1cc(Br)ccc1Br [LFM-A13] (first compound 0.0004 µM, partner dose 2 µM) | 183 | 29.9 | 248 | 123 | 32.5 | 50.2 | 40.8 | 77.9 | 35.5 | 96.6 |
| N#CC[C@H](C1CCCC1)n1cc(-c2ncnc3[nH]ccc23)cn1 [ruxolitinib] + Cc1cc(SCc2sc(-c3ccc(C(F)(F)F)c(F)c3)nc2C)ccc1OCC(=O)O [GW0742] (first compound 1 µM, partner dose 2 µM) | 211 | 72.3 | 34 | 26 | 104 | 92.6 | 68.9 | 71.9 | 170 | 95.4 |
| C[C@]1(O)C[C@@H](c2nc(-c3ccc4ccc(-c5ccccc5)nc4c3)c3c(N)nccn32)C1 + C/C(O)=C(\C#N)C(=O)Nc1cc(Br)ccc1Br [LFM-A13] (first compound 0.4 µM, partner dose 2 µM) | 165 | 60.7 | 48.8 | 119 | 153 | 156 | 103 | 6850 | 119 | 251 |
| OCc1c[nH]c2ccccc12 [Indole-3-carbinol] + C/C(O)=C(\C#N)C(=O)Nc1cc(Br)ccc1Br [LFM-A13] (first compound 0.8 µM, partner dose 2 µM) | 123 | 230 | 26.3 | 118 | 78.2 | 182 | 50.8 | 462 | 8.66 | 151 |
| Cc1cn(-c2cc(NC(=O)c3ccc(C)c(Nc4nccc(-c5cccnc5)n4)c3)cc(C(F)(F)F)c2)cn1 [nilotinib] + O=C(Oc1ccc([N+](=O)[O-])cc1)N1CCC(C(O)(c2ccc3c(c2)OCO3)c2ccc3c(c2)OCO3)CC1 [JZL184] (first compound 0.2 µM, partner dose 1 µM) | 117 | 228 | 46.2 | 99.9 | 59.3 | 148 | 29.2 | 82.1 | 195 | 90.1 |
| C=CCNC1=C2C[C@@H](C)C[C@H](OC)[C@H](O)[C@@H](C)/C=C(\C)[C@H](OC(N)=O)[C@@H](OC)/C=C\C=C(/C)C(=O)NC(=CC1=O)C2=O [Tanespimycin] + O=C(Oc1ccc([N+](=O)[O-])cc1)N1CCC(C(O)(c2ccc3c(c2)OCO3)c2ccc3c(c2)OCO3)CC1 [JZL184] (first compound 0.002 µM, partner dose 1 µM) | 133 | 43 | 94.6 | 30.8 | 129 | 41.3 | 24.4 | 79.2 | 101 | 181 |
| CN(c1ncccc1CNc1nc(Nc2ccc3c(c2)CC(=O)N3)ncc1C(F)(F)F)S(C)(=O)=O + O=C(Oc1ccc([N+](=O)[O-])cc1)N1CCC(C(O)(c2ccc3c(c2)OCO3)c2ccc3c(c2)OCO3)CC1 [JZL184] (first compound 0.08 µM, partner dose 1 µM) | 125 | 87.2 | 215 | 192 | 338 | 76.1 | 119 | 210 | 824 | 141 |
| N.N.[Cl][Pt][Cl] [cisplatin] + CC(C)CCN1c2nc(Nc3cc(F)c(O)c(F)c3)ncc2N(C)C(=O)C1C [BID1870] (first compound 1.6 µM, partner dose 0.2 µM) | 64 | 118 | 67.6 | 204 | 238 | 43.7 | 73.6 | 73.4 | 68.5 | 74.7 |
| CCCCCCCCc1ccc(CCC(N)(CO)CO)cc1 [fingolimod] + Cc1cc(SCc2sc(-c3ccc(C(F)(F)F)c(F)c3)nc2C)ccc1OCC(=O)O [GW0742] (first compound 2 µM, partner dose 2 µM) | 436 | 158 | 144 | 1070 | 34.5 | 248 | 95.4 | 65.7 | 77.4 | 77.8 |
| Cn1sc(=O)n(Cc2ccccc2)c1=O + Cc1cc(SCc2sc(-c3ccc(C(F)(F)F)c(F)c3)nc2C)ccc1OCC(=O)O [GW0742] (first compound 0.4 µM, partner dose 2 µM) | 102 | 94.2 | 55.2 | 135 | 147 | 149 | 41.6 | 69.2 | 70.8 | 92.8 |
| CCN(CC)CCNC(=O)c1c(C)[nH]c(/C=C2\C(=O)Nc3ccc(F)cc32)c1C [sunitinib] + C/C(O)=C(\C#N)C(=O)Nc1cc(Br)ccc1Br [LFM-A13] (first compound 0.4 µM, partner dose 2 µM) | 97.8 | 61 | 45.1 | 149 | 274 | 89.4 | 56.5 | 67 | 94 | 1090 |
| COc1ccc(C2=N[C@@H](c3ccc(Cl)cc3)[C@@H](c3ccc(Cl)cc3)N2C(=O)N2CCNC(=O)C2)c(OC(C)C)c1 [Nutlin-3] + Cc1cc(SCc2sc(-c3ccc(C(F)(F)F)c(F)c3)nc2C)ccc1OCC(=O)O [GW0742] (first compound 0.1 µM, partner dose 2 µM) | 123 | 224 | 69.6 | 90.7 | 101 | 114 | 31.2 | 80.5 | 63.5 | 80.5 |
| CN(c1ncccc1CNc1nc(Nc2ccc3c(c2)CC(=O)N3)ncc1C(F)(F)F)S(C)(=O)=O + C/C(O)=C(\C#N)C(=O)Nc1cc(Br)ccc1Br [LFM-A13] (first compound 0.08 µM, partner dose 2 µM) | 140 | 95.7 | 234 | 235 | 109 | 124 | 33.9 | 104 | 85 | 102 |
| Nc1ncn([C@H]2C[C@H](O)[C@@H](CO)O2)c(=O)n1 [decitabine] + Cc1cc(SCc2sc(-c3ccc(C(F)(F)F)c(F)c3)nc2C)ccc1OCC(=O)O [GW0742] (first compound 0.1 µM, partner dose 2 µM) | 95.2 | 55.6 | 85.6 | 85.4 | 184 | 136 | 224 | 65.8 | 105 | 87.5 |
| Cn1sc(=O)n(Cc2ccccc2)c1=O + O=C(Oc1ccc([N+](=O)[O-])cc1)N1CCC(C(O)(c2ccc3c(c2)OCO3)c2ccc3c(c2)OCO3)CC1 [JZL184] (first compound 0.4 µM, partner dose 1 µM) | 73.4 | 56.2 | 70.2 | 139 | 90.8 | 57.2 | 133 | 224 | 299 | 154 |
| O=C(O)[C@@H]1[O][Sb](=[O])([O][Sb]2(=[O])[O][C@H]([C@H](O)CO)[C@H](O)[C@H](C(=O)O)[O]2)[O][C@H]([C@H](O)CO)[C@@H]1O (stereo not given in full) [stibogluconate] + C/C(O)=C(\C#N)C(=O)Nc1cc(Br)ccc1Br [LFM-A13] (first compound 2 µM, partner dose 2 µM) | 73.8 | 25.8 | 47 | 84.5 | 96.1 | 71.6 | 77.9 | 68.5 | 204 | 90.6 |
| C[As](C)SC[C@H](NC(=O)CC[C@H](N)C(=O)O)C(=O)NCC(=O)O [Darinaparsin] + C[C@@H]1CCN(C(=O)CC#N)C[C@@H]1N(C)c1ncnc2[nH]ccc12 [CP690550] (first compound 0.4 µM, partner dose 1 µM) | 49.4 | 69.1 | 79.1 | 113 | 181 | 52.6 | 138 | 146 | 199 | 78.6 |

Pulled one by one from the list above:

| Structure (SMILES) | cleaved PARP positive nuclei fraction (MZ2-MEL) [%] | cleaved PARP positive nuclei fraction (MeWo) [%] | cleaved PARP positive nuclei fraction (RPMI7951) [%] | cleaved PARP positive nuclei fraction (RVH-421) [%] | cleaved PARP positive nuclei fraction (SkMel28) [%] | cleaved PARP positive nuclei fraction (SkMel2) [%] | cleaved PARP positive nuclei fraction (SkMel30) [%] | cleaved PARP positive nuclei fraction (SkMel5) [%] | cleaved PARP positive nuclei fraction (UACC257) [%] | cleaved PARP positive nuclei fraction (UACC62) [%] |
| --- | --- | --- | --- | --- | --- | --- | --- | --- | --- | --- |
| OCc1c[nH]c2ccccc12 [Indole-3-carbinol] + C/C(O)=C(\C#N)C(=O)Nc1cc(Br)ccc1Br [LFM-A13] (first compound 0.8 µM, partner dose 2 µM) | 123 | 230 | 26.3 | 118 | 78.2 | 182 | 50.8 | 462 | 8.66 | 151 |
| Cn1sc(=O)n(Cc2ccccc2)c1=O + O=C(Oc1ccc([N+](=O)[O-])cc1)N1CCC(C(O)(c2ccc3c(c2)OCO3)c2ccc3c(c2)OCO3)CC1 [JZL184] (first compound 0.4 µM, partner dose 1 µM) | 73.4 | 56.2 | 70.2 | 139 | 90.8 | 57.2 | 133 | 224 | 299 | 154 |
